Assay results reported in paper PMC8833648.
Results are given in words; binding and its absence hold for the method and conditions named. Binding seen in cells or lysates may run through a third protein. Some results given as binding are weak or reduced against the parent protein; the word gives no strength. Values belong to the molecule of their own block, whether it stands above or below them.

Protein sequences, listed by entry. Tags and fused reporters are not part of them.
UniProt Q04206: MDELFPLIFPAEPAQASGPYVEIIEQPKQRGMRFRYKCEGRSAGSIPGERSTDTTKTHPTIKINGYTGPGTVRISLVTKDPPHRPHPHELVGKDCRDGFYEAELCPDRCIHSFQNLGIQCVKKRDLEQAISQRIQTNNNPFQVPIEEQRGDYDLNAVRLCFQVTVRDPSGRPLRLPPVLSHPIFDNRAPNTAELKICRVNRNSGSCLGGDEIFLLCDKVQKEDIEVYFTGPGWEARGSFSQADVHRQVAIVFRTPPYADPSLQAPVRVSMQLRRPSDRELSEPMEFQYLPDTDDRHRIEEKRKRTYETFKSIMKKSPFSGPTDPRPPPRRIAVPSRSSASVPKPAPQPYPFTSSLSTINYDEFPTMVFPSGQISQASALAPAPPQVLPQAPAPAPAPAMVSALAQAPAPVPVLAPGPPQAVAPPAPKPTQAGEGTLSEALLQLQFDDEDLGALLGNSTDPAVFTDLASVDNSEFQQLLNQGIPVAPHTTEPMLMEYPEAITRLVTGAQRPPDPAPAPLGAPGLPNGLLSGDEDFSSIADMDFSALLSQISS
UniProt Q9UDY8: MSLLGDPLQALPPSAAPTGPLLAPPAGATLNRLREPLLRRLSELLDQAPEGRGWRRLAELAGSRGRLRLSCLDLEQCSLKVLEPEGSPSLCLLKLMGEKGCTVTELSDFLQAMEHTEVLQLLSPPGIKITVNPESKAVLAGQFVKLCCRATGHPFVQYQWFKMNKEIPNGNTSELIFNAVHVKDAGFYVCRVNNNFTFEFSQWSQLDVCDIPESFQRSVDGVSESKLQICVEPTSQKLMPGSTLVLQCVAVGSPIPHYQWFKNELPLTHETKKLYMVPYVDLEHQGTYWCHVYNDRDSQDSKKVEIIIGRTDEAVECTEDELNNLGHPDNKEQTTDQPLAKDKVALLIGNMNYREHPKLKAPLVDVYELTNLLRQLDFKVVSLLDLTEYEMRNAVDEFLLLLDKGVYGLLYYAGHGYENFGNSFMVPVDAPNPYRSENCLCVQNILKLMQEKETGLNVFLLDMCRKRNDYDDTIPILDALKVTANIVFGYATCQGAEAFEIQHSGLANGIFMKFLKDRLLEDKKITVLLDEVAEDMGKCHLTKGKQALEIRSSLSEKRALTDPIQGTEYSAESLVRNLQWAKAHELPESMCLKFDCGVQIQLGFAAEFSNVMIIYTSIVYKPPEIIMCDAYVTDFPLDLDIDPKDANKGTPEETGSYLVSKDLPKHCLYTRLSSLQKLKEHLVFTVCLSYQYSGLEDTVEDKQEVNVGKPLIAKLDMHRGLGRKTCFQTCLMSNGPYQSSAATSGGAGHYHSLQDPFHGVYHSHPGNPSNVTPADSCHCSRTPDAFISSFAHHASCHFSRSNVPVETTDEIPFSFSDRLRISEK

Experiments:
[1] = target: p65 (human (endogenous in U-RT1)) (UniProt Q04206); experiment: co-IP; control anti-p65 (rabbit) immunoprecipitation from whole protein extract of U-RT1 cells in TNT++ buffer, overnight at 4 °C, protein G Sepharose; immunoblots for MALT1, p65 and BCL10
[2] = target: T1, BCL10 (human (endogenous in U-RT1 and HBL-1)) (UniProt O95999); experiment: co-IP; anti-BCL10 (goat, C17) immunoprecipitation from 0.5-1 mg whole protein extract of U-RT1 and HBL-1 cells in TNT++ buffer (20 mM Tris pH 8.0, 200 mM NaCl, 1% Triton-X100, 1 mM DTT), overnight at 4 °C, protein G Sepharose; immunoblots for MALT1, CARD9 and BCL10
T1 sequence: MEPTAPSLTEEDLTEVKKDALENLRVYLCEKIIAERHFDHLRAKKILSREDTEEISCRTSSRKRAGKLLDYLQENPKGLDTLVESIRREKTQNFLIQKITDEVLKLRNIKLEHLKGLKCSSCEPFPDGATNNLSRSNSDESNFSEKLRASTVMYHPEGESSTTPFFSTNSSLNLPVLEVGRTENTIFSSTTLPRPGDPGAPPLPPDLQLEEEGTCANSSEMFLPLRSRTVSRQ

[3] = target: T2, BCL10 (human (endogenous in U-RT1 and HBL-1)), O95999; experiment: as above; settings: remark: other sources report otherwise
T2 chain: T1 sequence

binding [1]: no binding | binding [2]: binds
Molecule: MALT1 (from UniProt Q9UDY8 1-824)

binding [1]: no binding
B1: BCL10 (protein, UniProt O95999 1-233)
chain: T1 sequence

binding [3]: binds
B2: CARD9, Q9H257 1-536 (protein)
chain: MSDYENDDECWSVLEGFRVTLTSVIDPSRITPYLRQCKVLNPDDEEQVLSDPNLVIRKRKVGVLLDILQRTGHKGYVAFLESLELYYPQLYKKVTGKEPARVFSMIIDASGESGLTQLLMTEVMKLQKKVQDLTALLSSKDDFIKELRVKDSLLRKHQERVQRLKEECEAGSRELKRCKEENYDLAMRLAHQSEEKGAALMRNRDLQLEIDQLKHSLMKAEDDCKVERKHTLKLRHAMEQRPSQELLWELQQEKALLQARVQELEASVQEGKLDRSSPYIQVLEEDWRQALRDHQEQANTIFSLRKDLRQGEARRLRCMEEKEMFELQCLALRKDSKMYKDRIEAILLQMEEVAIERDQAIATREELHAQHARGLQEKDALRKQVRELGEKADELQLQVFQCEAQLLAVEGRLRRQQLETLVLSSDLEDGSPRRSQELSLPQDLEDTQLSDKGCLAGGGSPKQPFAALHQEQVLRNPHDAGLSSGEPPEKERRRLKESFENYRRKRALRKMQKGWRQGEEDRENTTGSDNTDTEGS
